Measured values taken from publication PMC10740863.
No constants are given. Whether binding was seen depends on the method and setting. In cells and extracts the contact can be indirect. Binding can be weak; no strength is given. One block for each molecule: values may come before it.

Protein sequences, listed by entry. Tags and fused reporters are not part of them. Lines headed by an entry give the natural chain unless they say otherwise; changes in a name come on top.
UniProt Q9Y5S8: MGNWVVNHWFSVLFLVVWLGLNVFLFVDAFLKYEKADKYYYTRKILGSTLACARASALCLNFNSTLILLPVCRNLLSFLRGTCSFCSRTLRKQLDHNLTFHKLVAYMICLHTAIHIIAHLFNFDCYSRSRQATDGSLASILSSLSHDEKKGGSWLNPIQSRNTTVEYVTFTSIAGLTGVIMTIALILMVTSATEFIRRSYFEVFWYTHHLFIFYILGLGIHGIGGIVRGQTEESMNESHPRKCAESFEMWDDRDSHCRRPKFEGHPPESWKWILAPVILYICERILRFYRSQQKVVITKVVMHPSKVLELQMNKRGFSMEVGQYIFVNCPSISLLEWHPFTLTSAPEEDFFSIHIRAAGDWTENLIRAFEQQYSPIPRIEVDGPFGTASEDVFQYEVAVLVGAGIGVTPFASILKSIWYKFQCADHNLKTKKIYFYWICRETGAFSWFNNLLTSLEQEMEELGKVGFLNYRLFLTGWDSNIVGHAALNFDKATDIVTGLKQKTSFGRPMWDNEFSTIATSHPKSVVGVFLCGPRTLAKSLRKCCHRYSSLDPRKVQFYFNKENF
UniProt Q8CIZ9: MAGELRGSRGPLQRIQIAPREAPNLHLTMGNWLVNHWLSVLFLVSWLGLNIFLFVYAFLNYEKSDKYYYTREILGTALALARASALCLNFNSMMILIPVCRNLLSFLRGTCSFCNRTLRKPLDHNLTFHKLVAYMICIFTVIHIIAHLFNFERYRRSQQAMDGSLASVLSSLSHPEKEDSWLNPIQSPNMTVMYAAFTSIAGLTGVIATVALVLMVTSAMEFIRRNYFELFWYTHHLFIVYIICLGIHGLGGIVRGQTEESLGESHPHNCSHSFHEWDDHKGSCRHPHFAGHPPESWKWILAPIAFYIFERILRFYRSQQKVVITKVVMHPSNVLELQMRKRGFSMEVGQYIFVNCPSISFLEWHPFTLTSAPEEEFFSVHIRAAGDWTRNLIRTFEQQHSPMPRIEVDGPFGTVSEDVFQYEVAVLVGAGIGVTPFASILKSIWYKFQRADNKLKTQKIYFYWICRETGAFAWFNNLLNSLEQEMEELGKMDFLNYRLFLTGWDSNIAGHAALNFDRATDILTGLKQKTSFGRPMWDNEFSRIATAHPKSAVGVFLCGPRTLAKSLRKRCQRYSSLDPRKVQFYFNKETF
UniProt P78536: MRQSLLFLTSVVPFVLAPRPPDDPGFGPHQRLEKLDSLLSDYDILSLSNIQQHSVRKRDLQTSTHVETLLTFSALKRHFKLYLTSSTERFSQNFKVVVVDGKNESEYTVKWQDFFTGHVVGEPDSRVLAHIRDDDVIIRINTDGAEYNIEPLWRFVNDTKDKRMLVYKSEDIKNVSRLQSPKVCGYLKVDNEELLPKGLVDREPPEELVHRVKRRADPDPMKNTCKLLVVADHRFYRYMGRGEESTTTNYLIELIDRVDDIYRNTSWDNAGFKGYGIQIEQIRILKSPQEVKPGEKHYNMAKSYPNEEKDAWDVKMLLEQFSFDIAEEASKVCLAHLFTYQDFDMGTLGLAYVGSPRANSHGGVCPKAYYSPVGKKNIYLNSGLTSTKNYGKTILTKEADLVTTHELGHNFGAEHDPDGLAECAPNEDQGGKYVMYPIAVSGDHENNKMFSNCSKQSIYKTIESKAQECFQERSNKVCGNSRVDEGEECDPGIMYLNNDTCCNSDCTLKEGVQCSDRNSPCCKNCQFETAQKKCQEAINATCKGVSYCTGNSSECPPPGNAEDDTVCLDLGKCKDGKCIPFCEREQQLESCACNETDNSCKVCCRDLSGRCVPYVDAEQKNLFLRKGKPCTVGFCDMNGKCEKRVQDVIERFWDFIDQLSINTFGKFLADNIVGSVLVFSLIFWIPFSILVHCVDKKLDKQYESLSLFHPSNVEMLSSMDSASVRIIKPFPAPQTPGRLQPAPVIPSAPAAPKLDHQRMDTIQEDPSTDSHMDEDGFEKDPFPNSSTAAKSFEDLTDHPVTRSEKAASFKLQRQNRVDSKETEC
UniProt Q9Z0F8: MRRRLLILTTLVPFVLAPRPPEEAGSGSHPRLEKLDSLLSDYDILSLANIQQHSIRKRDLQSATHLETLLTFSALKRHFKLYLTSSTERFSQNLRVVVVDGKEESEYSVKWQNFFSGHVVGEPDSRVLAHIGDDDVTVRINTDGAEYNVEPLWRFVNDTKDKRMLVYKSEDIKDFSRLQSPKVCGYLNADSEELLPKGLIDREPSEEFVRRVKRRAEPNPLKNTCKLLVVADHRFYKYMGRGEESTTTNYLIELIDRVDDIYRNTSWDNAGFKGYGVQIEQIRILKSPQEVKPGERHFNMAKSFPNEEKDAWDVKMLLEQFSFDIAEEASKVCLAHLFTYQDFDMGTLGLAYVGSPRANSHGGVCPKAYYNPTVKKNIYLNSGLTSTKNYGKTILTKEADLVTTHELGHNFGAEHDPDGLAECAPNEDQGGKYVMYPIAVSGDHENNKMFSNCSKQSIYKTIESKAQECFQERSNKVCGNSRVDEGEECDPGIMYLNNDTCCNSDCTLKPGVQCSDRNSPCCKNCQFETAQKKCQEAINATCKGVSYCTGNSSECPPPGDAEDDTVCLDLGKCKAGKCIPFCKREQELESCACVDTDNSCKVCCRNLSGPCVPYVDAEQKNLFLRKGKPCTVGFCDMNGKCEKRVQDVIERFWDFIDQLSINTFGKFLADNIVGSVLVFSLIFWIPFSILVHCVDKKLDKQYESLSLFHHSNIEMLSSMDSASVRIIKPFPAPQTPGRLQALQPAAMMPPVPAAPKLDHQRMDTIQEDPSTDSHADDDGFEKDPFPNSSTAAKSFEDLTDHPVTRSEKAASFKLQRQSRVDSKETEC

Columns and labels:
[1] = target: NOX1, human (human (endogenous in HUVEC and DLD1)) (UniProt Q9Y5S8); experiment: co-IP; endogenous proteins in whole lysates of human cells (HUVEC, DLD1); NP-40 lysis buffer with protease and phosphatase inhibitors; primary antibody overnight at 4 °C, protein G magnetic beads 2 h at 4 °C, three washes; Western blot
[2] = target: T1, NOXO1, human (human (endogenous in HUVEC and DLD1)) (UniProt Q8NFA2); experiment: as above
T1 sequence: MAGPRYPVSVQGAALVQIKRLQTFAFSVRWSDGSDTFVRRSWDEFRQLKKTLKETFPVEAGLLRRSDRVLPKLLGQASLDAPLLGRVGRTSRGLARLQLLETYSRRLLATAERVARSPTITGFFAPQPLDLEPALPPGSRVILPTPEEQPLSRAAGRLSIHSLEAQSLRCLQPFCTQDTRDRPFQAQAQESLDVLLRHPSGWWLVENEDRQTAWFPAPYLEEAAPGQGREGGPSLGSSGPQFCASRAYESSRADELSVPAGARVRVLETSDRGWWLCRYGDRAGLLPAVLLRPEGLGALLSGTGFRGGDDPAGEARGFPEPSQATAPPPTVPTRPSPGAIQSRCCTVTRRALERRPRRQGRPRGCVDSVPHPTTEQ

[3] = target: T2, membrane melanoma cell adhesion molecule (MCAM), human (human (endogenous in HUVEC and DLD1)) (UniProt P43121); experiment: as above
T2 sequence: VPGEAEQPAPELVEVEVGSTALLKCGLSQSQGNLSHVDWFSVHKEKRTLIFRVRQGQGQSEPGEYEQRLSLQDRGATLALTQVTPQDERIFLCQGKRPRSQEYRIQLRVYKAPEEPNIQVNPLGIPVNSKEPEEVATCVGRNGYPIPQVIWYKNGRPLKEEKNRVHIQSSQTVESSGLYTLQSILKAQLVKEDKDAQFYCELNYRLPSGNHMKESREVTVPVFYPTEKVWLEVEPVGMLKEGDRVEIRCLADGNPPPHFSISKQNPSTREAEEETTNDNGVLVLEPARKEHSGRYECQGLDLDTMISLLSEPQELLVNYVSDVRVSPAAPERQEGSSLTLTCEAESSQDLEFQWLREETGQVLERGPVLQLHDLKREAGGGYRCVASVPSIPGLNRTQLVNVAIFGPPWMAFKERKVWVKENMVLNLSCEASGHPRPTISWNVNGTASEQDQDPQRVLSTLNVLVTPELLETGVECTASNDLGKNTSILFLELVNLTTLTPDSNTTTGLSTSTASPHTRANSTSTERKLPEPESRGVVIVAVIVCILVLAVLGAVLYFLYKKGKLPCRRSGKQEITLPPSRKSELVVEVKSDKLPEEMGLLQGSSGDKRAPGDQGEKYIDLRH

[4] = target: T3, membrane melanoma cell adhesion molecule (MCAM), mouse (mouse (endogenous in MC38 and B16F10)) (UniProt Q8R2Y2); experiment: co-IP; endogenous proteins in whole lysates of mouse cancer cells (MC38, B16F10); NP-40 lysis buffer with protease and phosphatase inhibitors; primary antibody overnight at 4 °C, protein G magnetic beads 2 h at 4 °C, three washes; Western blot
T3 sequence: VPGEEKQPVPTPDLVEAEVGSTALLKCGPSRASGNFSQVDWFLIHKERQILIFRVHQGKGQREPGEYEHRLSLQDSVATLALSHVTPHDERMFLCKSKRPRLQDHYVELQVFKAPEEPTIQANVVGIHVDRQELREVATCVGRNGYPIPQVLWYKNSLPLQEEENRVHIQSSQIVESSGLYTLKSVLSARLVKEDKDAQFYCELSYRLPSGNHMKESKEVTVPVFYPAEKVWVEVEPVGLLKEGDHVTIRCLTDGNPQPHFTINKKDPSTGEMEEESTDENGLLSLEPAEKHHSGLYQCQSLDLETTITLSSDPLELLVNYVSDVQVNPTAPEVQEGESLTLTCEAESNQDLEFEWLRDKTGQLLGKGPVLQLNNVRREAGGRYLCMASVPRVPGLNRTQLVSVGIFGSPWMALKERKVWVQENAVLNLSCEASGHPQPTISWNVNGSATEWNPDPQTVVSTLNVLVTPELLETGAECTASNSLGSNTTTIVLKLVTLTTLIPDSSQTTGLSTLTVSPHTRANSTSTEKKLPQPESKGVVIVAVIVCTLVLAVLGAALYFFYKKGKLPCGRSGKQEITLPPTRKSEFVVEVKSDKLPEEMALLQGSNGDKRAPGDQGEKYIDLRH

[5] = target: NOX1, mouse (mouse (endogenous in MC38 and B16F10)) (UniProt Q8CIZ9); experiment: as above
[6] = target: ADAM17, human (human (endogenous in HUVEC and DLD1)) (UniProt P78536); experiment: co-IP; endogenous proteins in whole lysates of human cells (HUVEC, DLD1); NP-40 lysis buffer with protease and phosphatase inhibitors; primary antibody overnight at 4 °C, protein G magnetic beads 2 h at 4 °C, three washes; Western blot
[7] = target: ADAM17, mouse (mouse (endogenous in MC38 and B16F10)) (UniProt Q9Z0F8); experiment: co-IP; endogenous proteins in whole lysates of mouse cancer cells (MC38, B16F10); NP-40 lysis buffer with protease and phosphatase inhibitors; primary antibody overnight at 4 °C, protein G magnetic beads 2 h at 4 °C, three washes; Western blot

Molecule: ADAM17, mouse (from UniProt Q9Z0F8) (enzyme)
binding [4]: binds
binding [5]: binds

Molecule: NOX1, mouse (from UniProt Q8CIZ9 1-591) (enzyme)
binding [7]: binds

Molecule: membrane melanoma cell adhesion molecule (MCAM), human (from UniProt P43121 24-646)
binding [6]: binds

B1: membrane melanoma cell adhesion molecule (MCAM), mouse (protein, UniProt Q8R2Y2 24-648)
chain: VPGEEKQPVPTPDLVEAEVGSTALLKCGPSRASGNFSQVDWFLIHKERQILIFRVHQGKGQREPGEYEHRLSLQDSVATLALSHVTPHDERMFLCKSKRPRLQDHYVELQVFKAPEEPTIQANVVGIHVDRQELREVATCVGRNGYPIPQVLWYKNSLPLQEEENRVHIQSSQIVESSGLYTLKSVLSARLVKEDKDAQFYCELSYRLPSGNHMKESKEVTVPVFYPAEKVWVEVEPVGLLKEGDHVTIRCLTDGNPQPHFTINKKDPSTGEMEEESTDENGLLSLEPAEKHHSGLYQCQSLDLETTITLSSDPLELLVNYVSDVQVNPTAPEVQEGESLTLTCEAESNQDLEFEWLRDKTGQLLGKGPVLQLNNVRREAGGRYLCMASVPRVPGLNRTQLVSVGIFGSPWMALKERKVWVQENAVLNLSCEASGHPQPTISWNVNGSATEWNPDPQTVVSTLNVLVTPELLETGAECTASNSLGSNTTTIVLKLVTLTTLIPDSSQTTGLSTLTVSPHTRANSTSTEKKLPQPESKGVVIVAVIVCTLVLAVLGAALYFFYKKGKLPCGRSGKQEITLPPTRKSEFVVEVKSDKLPEEMALLQGSNGDKRAPGDQGEKYIDLRH
binding [7]: binds

Results, then the molecule that gave them:

binding [1]: binds
binding [2]: binds
binding [3]: binds
Molecule: ADAM17, human (from UniProt P78536) (enzyme)

binding [6]: binds
Molecule: NOX1, human (from UniProt Q9Y5S8 1-564) (enzyme)
